{"source": "patent US10478501B2", "about": "“Method of treating disorders using a pharmaceutical composition of oligopeptides” (Merck Patent GmbH, priority 2011, dated 2019)", "origin": "cited, not measured here", "test_system": "glioblastoma multiforme", "conditions": "radiotherapy and temozolomide, resected glioblastoma multiforme patients, cited from earlier work", "note": "At least one structure is not confirmed: it was looked up by name or label, or the drawing left a doubt."}
{"smiles": "Cn1nnc2c(C(N)=O)ncn2c1=O", "note": "[temozolomide]", "values": [{"measurement": "increase of median survival compared to radiotherapy alone", "value": 2.5, "unit": "months"}, {"measurement": "median survival", "setting": "radiotherapy alone 12.1", "value": 14.6, "unit": "months"}]}
